# Data: the supplement of paper PMC8728848
# The other results are listed elsewhere or left out.
# B1: Agalectin (Anopheles gambiae) (protein)
# chain: MSNRPFTAKFPRYPENGDEVFIRGKLKDDAKSFSVNFCLPRPAQVAEHQTPPYIALHFKTIYDERDDTSRVVLNWKNLQWQQEEVLDNYWHVDRSQTFRVVFRLHEDCIKVFVNSVDHPPDYQFPVQLPLDQIESIELWDDVEHVEEISFRYDNGNSY
# Assays:
# Experiment in all cases: glycan array binding signal (z-score within array); higher = stronger binding
# Conditions in all cases: glycan notation: IUPAC condensed, linker removed
# Fuc(a1-2)Gal = molecular target: Fuc(a1-2)Gal
# Summary of the method: (§1)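 Columns mapping to the same glycan were averaged after glycan names were converted to IUPAC-condensed notation. The data come from 3228 arrays in the Consortium for Functional Glycomics database, limited to those with an available protein sequence. Binding is reported as a within-array Z-score averaged across arrays of one protein sequence and across linkers.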
# Fuc(a1-2)Gal(b1-3)GalNAc = molecular target: Fuc(a1-2)Gal(b1-3)GalNAc
# Summary of the method: as §1
# [1] = molecular target: Fuc(a1-2)Gal(b1-3)GalNAc(a1-3)[Fuc(a1-2)]Gal(b1-4)Glc
# Summary of the method: as §1
# [2] = molecular target: Fuc(a1-2)Gal(b1-3)GalNAc(a1-3)[Fuc(a1-2)]Gal(b1-4)GlcNAc
# Summary of the method: as §1
# [3] = molecular target: Fuc(a1-2)Gal(b1-3)GalNAc(b1-3)Gal
# Summary of the method: as §1
# [4] = molecular target: Fuc(a1-2)Gal(b1-3)GalNAc(b1-3)Gal(a1-4)Gal(b1-4)Glc
# Summary of the method: as §1
# [5] = molecular target: Fuc(a1-2)Gal(b1-3)GalNAc(b1-4)[Neu5Ac(a2-3)]Gal(b1-4)Glc
# Summary of the method: as §1
# Fuc(a1-2)Gal(b1-3)GlcNAc = molecular target: Fuc(a1-2)Gal(b1-3)GlcNAc
# Summary of the method: as §1
# [6] = molecular target: Fuc(a1-2)Gal(b1-3)GlcNAc(b1-2)Man(a1-3)[Fuc(a1-2)Gal(b1-3)GlcNAc(b1-2)Man(a1-6)]Man(b1-4)GlcNAc(b1-4)GlcNAc
# Summary of the method: as §1
# [7] = molecular target: Fuc(a1-2)Gal(b1-3)GlcNAc(b1-2)Man(a1-3)[Fuc(a1-2)Gal(b1-3)GlcNAc(b1-2)Man(a1-6)]Man(b1-4)GlcNAc(b1-4)[Fuc(a1-6)]GlcNAc
# Summary of the method: as §1
# [8] = molecular target: Fuc(a1-2)Gal(b1-3)GlcNAc(b1-3)Gal(b1-4)Glc
# Summary of the method: as §1
# [9] = molecular target: Fuc(a1-2)Gal(b1-3)GlcNAc(b1-3)GalNAc
# Summary of the method: as §1
# [10] = molecular target: Fuc(a1-2)Gal(b1-3)GlcNAc(b1-3)[Fuc(a1-2)Gal(b1-3)GlcNAc(b1-6)]GalNAc
# Summary of the method: as §1
# [11] = molecular target: Fuc(a1-2)Gal(b1-3)GlcNAc(b1-3)[Gal(b1-4)GlcNAc(b1-6)]Gal(b1-4)Glc
# Summary of the method: as §1
# [12] = molecular target: Fuc(a1-2)Gal(b1-3)GlcNAc(b1-3)[Neu5Ac(a2-6)Gal(b1-4)GlcNAc(b1-6)]Gal(b1-4)Glc
# Summary of the method: as §1
# [13] = molecular target: Fuc(a1-2)Gal(b1-3)GlcNAc6S
# Summary of the method: as §1
# [14] = molecular target: Fuc(a1-2)Gal(b1-3)[Fuc(a1-4)]GlcNAc
# Summary of the method: as §1
# [15] = molecular target: Fuc(a1-2)Gal(b1-3)[Fuc(a1-4)]GlcNAc(b1-2)Man(a1-3)[Fuc(a1-2)Gal(b1-3)[Fuc(a1-4)]GlcNAc(b1-2)Man(a1-3)]Man(b1-4)GlcNAc(b1-4)GlcNAc
# Summary of the method: as §1
# [16] = molecular target: Fuc(a1-2)Gal(b1-3)[Fuc(a1-4)]GlcNAc(b1-2)Man(a1-3)[Fuc(a1-2)Gal(b1-3)[Fuc(a1-4)]GlcNAc(b1-2)Man(a1-6)]Man(b1-4)GlcNAc(b1-4)[Fuc(a1-6)]GlcNAc(b1-4)[Fuc(a1-6)]GlcNAc
# Summary of the method: as §1
# [17] = molecular target: Fuc(a1-2)Gal(b1-3)[Fuc(a1-4)]GlcNAc(b1-3)[Fuc(a1-3)[Gal(b1-4)]GlcNAc(b1-6)]Gal(b1-4)Glc
# Summary of the method: as §1
# [18] = molecular target: Fuc(a1-2)Gal(b1-3)[Fuc(a1-4)]GlcNAc(b1-3)[Gal(b1-4)GlcNAc(b1-6)]Gal(b1-4)Glc
# Summary of the method: as §1
# Fuc(a1-2)Gal(b1-4)Glc = molecular target: Fuc(a1-2)Gal(b1-4)Glc
# Summary of the method: as §1
# Fuc(a1-2)Gal(b1-4)Glc6S = molecular target: Fuc(a1-2)Gal(b1-4)Glc6S
# Summary of the method: as §1
# Fuc(a1-2)Gal(b1-4)GlcNAc = molecular target: Fuc(a1-2)Gal(b1-4)GlcNAc
# Summary of the method: as §1
# [19] = molecular target: Fuc(a1-2)Gal(b1-4)GlcNAc(b1-2)Man
# Summary of the method: as §1
# [20] = molecular target: Fuc(a1-2)Gal(b1-4)GlcNAc(b1-2)Man(a1-3)[Fuc(a1-2)Gal(b1-4)GlcNAc(b1-2)Man(a1-6)]Man(b1-4)GlcNAc(b1-4)GlcNAc
# Summary of the method: as §1
# [21] = molecular target: Fuc(a1-2)Gal(b1-4)GlcNAc(b1-2)Man(a1-3)[Fuc(a1-2)Gal(b1-4)GlcNAc(b1-2)Man(a1-6)]Man(b1-4)GlcNAc(b1-4)[Fuc(a1-6)]GlcNAc
# Summary of the method: as §1
# [22] = molecular target: Fuc(a1-2)Gal(b1-4)GlcNAc(b1-2)[Fuc(a1-2)Gal(b1-4)GlcNAc(b1-4)]Man(a1-3)[Fuc(a1-2)Gal(b1-4)GlcNAc(b1-2)Man(a1-6)]Man(b1-4)GlcNAc(b1-4)GlcNAc
# Summary of the method: as §1
# [23] = molecular target: Fuc(a1-2)Gal(b1-4)GlcNAc(b1-3)Gal(b1-4)GlcNAc
# Summary of the method: as §1
# [24] = molecular target: Fuc(a1-2)Gal(b1-4)GlcNAc(b1-3)Gal(b1-4)GlcNAc(b1-2)Man(a1-3)[Fuc(a1-2)Gal(b1-4)GlcNAc(b1-3)Gal(b1-4)GlcNAc(b1-2)Man(a1-6)]Man(b1-4)GlcNAc(b1-4)GlcNAc
# Summary of the method: as §1
binder,measurement,setting,value
B1,glycan array binding signal (z-score),Fuc(a1-2)Gal,0.575
same,glycan array binding signal (z-score),Fuc(a1-2)Gal(b1-3)GalNAc,-0.505
same,glycan array binding signal (z-score),[1],-0.443
same,glycan array binding signal (z-score),[2],-0.754
same,glycan array binding signal (z-score),[3],-0.269
same,glycan array binding signal (z-score),[4],-0.706
same,glycan array binding signal (z-score),[5],0.019
same,glycan array binding signal (z-score),Fuc(a1-2)Gal(b1-3)GlcNAc,-0.564
same,glycan array binding signal (z-score),[6],5.71
same,glycan array binding signal (z-score),[7],-0.193
same,glycan array binding signal (z-score),[8],-0.53
same,glycan array binding signal (z-score),[9],-1.03
same,glycan array binding signal (z-score),[10],4.19
same,glycan array binding signal (z-score),[11],-1.57
same,glycan array binding signal (z-score),[12],-1.7
same,glycan array binding signal (z-score),[13],-0.814
same,glycan array binding signal (z-score),[14],-0.396
same,glycan array binding signal (z-score),[15],1.4
same,glycan array binding signal (z-score),[16],0.179
same,glycan array binding signal (z-score),[17],0.133
same,glycan array binding signal (z-score),[18],-0.766
same,glycan array binding signal (z-score),Fuc(a1-2)Gal(b1-4)Glc,-0.434
same,glycan array binding signal (z-score),Fuc(a1-2)Gal(b1-4)Glc6S,1.12
same,glycan array binding signal (z-score),Fuc(a1-2)Gal(b1-4)GlcNAc,-0.348
same,glycan array binding signal (z-score),[19],-1.22
same,glycan array binding signal (z-score),[20],0.164
same,glycan array binding signal (z-score),[21],1.1
same,glycan array binding signal (z-score),[22],0.64
same,glycan array binding signal (z-score),[23],-0.366
same,glycan array binding signal (z-score),[24],-0.148

# Part of the list above, tab-delimited.
binder	measurement	setting	value
B1	glycan array binding signal (z-score)	[13]	-0.814
same	glycan array binding signal (z-score)	[14]	-0.396
same	glycan array binding signal (z-score)	[15]	1.4
same	glycan array binding signal (z-score)	[16]	0.179
same	glycan array binding signal (z-score)	[17]	0.133
same	glycan array binding signal (z-score)	[18]	-0.766
same	glycan array binding signal (z-score)	Fuc(a1-2)Gal(b1-4)Glc	-0.434
